Assay results taken from the supplement of paper PMC10849652.
The list shows a part of the results.

Chains of the proteins cited; added tags and fusions are not shown. Lines headed by an entry give the natural chain unless they say otherwise; changes in a name come on top.
UniProt P42224: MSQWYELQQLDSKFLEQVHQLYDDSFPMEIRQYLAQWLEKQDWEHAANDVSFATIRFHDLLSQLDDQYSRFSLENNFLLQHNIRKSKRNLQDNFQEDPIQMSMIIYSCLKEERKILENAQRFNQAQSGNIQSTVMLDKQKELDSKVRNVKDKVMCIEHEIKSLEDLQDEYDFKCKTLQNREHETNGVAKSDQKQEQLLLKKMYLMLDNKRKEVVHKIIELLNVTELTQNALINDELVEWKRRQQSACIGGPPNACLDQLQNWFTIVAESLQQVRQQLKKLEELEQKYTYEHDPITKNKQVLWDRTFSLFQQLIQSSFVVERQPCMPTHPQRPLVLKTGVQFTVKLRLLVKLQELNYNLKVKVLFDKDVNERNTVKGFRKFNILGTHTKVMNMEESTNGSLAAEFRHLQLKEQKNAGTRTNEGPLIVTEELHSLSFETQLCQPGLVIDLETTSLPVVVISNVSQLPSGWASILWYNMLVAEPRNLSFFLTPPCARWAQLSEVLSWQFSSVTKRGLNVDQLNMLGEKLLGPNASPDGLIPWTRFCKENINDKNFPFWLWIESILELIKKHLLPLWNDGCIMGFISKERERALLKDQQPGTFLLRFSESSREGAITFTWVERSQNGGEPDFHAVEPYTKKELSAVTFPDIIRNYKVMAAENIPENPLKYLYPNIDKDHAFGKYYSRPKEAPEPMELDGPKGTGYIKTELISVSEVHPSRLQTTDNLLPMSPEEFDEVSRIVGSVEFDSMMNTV
UniProt Q16629: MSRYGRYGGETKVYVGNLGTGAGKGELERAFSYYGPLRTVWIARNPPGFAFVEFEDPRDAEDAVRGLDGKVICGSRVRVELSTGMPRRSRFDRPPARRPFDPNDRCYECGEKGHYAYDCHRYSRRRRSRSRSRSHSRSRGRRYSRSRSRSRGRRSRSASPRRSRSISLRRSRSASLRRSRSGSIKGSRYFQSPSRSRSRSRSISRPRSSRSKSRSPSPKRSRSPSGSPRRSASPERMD
UniProt Q8N9Q2: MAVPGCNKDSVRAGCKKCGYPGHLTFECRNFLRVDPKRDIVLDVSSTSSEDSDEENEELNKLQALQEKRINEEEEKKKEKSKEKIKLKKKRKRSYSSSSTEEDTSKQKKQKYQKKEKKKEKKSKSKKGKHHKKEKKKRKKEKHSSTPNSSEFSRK
UniProt Q16385, whole entry, looked up: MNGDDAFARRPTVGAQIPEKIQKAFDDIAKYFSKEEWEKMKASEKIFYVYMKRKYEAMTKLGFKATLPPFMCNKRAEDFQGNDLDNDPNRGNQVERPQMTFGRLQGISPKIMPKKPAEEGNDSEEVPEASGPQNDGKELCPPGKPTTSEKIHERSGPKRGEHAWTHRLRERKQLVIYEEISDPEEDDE
UniProt Q68D10: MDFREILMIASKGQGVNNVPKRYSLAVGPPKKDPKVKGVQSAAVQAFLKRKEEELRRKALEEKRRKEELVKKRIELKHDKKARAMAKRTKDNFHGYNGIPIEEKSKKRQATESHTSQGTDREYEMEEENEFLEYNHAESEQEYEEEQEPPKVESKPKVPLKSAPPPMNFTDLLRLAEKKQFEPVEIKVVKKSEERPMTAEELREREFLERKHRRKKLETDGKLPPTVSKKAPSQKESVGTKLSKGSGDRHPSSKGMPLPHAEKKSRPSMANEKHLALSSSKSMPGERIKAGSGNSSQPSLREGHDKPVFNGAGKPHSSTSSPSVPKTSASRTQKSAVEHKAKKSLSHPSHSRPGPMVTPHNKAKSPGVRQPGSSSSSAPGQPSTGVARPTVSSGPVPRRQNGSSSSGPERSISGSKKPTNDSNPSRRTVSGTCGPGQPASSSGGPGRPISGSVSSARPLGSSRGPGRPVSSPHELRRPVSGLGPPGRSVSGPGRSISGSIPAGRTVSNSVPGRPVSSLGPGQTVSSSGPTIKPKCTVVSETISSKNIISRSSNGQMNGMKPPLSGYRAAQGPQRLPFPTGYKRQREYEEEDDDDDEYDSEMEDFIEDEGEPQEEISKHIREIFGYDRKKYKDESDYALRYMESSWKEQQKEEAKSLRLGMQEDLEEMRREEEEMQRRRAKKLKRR
UniProt O95772: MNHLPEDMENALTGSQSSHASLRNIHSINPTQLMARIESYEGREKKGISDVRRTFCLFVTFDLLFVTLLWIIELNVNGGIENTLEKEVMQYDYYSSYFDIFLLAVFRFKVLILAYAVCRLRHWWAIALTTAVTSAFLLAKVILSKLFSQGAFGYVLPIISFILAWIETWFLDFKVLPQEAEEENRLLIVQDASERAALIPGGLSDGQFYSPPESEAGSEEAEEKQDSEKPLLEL
UniProt Q86XZ4: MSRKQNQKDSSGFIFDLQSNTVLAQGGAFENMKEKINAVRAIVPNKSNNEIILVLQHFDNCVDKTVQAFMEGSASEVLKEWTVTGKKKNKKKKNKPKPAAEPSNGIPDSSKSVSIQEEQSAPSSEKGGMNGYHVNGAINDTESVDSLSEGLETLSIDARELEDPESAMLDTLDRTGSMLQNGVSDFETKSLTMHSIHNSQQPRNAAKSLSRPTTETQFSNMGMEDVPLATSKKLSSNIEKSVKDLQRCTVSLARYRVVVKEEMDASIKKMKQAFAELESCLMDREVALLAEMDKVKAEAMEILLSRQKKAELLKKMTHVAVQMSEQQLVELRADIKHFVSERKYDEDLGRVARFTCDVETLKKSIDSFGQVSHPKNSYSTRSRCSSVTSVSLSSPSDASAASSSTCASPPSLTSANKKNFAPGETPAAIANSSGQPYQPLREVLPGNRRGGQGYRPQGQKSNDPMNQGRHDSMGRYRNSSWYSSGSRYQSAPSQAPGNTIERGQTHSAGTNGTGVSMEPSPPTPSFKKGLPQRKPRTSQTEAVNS
UniProt Q9NZD8: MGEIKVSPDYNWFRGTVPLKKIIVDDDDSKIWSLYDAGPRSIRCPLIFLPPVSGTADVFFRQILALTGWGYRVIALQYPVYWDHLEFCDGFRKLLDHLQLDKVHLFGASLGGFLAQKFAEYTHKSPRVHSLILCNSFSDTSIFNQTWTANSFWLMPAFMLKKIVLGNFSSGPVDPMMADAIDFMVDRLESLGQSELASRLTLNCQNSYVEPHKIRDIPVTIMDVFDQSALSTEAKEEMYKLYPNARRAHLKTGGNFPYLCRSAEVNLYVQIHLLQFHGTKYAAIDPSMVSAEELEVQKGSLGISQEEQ
UniProt O95630, whole entry, looked up: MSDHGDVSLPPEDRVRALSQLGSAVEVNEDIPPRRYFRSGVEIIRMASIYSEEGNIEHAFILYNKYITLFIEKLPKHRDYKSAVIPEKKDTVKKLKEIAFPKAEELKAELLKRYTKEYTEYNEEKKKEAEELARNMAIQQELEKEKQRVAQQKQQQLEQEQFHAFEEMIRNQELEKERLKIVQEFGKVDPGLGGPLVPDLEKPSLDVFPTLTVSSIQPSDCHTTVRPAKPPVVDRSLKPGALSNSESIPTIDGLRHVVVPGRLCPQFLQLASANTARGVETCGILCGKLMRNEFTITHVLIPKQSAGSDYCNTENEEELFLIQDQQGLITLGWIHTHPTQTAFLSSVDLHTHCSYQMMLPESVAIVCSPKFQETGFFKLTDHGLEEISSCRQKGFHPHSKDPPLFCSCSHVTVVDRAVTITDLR
UniProt Q9NP77: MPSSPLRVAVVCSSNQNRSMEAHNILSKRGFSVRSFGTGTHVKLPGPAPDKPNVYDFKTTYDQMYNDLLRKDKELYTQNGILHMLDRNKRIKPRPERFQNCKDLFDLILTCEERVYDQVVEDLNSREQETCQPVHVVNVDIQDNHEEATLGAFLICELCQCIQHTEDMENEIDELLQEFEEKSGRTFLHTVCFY
UniProt Q08AE8, whole entry, looked up: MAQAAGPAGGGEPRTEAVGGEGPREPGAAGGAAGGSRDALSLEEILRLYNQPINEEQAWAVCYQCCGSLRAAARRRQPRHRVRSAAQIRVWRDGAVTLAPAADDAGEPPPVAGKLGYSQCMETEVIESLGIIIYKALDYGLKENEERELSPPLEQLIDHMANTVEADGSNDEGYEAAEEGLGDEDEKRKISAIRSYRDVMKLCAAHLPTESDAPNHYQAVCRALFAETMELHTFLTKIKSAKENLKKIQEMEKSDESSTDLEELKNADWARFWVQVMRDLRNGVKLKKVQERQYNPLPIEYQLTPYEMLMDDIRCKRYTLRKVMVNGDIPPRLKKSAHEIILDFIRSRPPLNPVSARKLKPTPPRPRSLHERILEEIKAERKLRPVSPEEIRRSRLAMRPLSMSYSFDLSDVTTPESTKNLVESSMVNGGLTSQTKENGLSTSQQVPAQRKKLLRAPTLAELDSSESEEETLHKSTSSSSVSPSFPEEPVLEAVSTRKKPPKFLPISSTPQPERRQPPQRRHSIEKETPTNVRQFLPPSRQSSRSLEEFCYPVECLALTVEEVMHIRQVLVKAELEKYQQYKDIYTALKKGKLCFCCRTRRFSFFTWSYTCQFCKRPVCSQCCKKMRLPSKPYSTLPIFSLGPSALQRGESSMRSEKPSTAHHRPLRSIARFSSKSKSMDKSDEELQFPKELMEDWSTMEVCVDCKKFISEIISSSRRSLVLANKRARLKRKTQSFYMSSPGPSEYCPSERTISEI
UniProt Q9BWG4: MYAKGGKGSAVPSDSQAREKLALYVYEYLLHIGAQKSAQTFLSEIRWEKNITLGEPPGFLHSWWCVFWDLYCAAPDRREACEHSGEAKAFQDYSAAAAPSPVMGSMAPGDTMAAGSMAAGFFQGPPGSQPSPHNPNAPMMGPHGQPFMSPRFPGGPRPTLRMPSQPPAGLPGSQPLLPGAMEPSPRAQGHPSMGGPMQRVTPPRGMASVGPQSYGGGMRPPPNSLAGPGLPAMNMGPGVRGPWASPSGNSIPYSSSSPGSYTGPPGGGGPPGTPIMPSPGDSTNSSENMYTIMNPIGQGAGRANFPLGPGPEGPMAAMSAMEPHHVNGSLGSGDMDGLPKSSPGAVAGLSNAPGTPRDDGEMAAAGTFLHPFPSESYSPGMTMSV
UniProt Q11206: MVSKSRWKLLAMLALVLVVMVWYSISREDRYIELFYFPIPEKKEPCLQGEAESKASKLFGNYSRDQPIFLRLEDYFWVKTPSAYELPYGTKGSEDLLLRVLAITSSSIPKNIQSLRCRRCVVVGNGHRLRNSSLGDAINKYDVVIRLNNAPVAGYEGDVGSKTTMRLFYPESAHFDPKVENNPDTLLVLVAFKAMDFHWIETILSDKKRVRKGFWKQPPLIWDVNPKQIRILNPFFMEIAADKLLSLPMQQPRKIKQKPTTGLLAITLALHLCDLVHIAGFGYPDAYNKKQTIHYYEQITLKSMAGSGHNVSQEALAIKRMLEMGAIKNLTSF
UniProt Q8WVM7: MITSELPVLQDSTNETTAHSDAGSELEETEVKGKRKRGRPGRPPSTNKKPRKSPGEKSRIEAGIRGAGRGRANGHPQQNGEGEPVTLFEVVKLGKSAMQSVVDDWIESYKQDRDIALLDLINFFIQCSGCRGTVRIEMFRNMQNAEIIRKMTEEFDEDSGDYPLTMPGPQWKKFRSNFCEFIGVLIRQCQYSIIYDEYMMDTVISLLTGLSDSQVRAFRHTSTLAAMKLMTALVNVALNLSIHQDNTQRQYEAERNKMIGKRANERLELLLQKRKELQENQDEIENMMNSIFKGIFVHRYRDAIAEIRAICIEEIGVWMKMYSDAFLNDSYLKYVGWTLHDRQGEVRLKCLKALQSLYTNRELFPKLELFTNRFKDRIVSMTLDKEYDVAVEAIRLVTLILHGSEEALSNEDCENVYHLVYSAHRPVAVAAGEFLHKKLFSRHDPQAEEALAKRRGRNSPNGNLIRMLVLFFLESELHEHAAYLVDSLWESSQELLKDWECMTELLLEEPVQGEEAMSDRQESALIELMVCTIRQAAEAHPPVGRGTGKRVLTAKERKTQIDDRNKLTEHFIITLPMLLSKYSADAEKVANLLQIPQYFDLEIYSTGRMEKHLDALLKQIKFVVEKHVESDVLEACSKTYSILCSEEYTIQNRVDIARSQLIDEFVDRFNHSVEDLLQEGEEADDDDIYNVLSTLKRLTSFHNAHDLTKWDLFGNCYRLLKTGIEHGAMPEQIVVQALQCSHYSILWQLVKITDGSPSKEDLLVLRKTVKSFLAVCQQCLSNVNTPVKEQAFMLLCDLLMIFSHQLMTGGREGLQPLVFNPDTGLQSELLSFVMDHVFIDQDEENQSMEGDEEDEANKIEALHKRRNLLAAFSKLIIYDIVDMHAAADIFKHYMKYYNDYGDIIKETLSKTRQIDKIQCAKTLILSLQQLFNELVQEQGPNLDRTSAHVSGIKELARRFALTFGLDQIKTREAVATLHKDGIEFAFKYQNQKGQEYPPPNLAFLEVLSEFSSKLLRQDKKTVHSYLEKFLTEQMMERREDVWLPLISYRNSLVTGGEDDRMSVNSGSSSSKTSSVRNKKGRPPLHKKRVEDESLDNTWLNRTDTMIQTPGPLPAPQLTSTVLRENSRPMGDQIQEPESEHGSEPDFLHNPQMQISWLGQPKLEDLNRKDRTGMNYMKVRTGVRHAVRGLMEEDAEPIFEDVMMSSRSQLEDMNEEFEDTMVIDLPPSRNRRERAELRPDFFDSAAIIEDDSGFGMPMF

Compound: NC(=O)Nc1cc(-c2cccc(F)c2)sc1C(=O)N[C@H]1CCCNC1
Test: log2 fold change, soluble protein after heating vs DMSO (PISA); higher = thermal stabilisation; K562 lysate, 10 uM; active = over 0.2 and 3.5 SD of the protein, either way, in both replicates (recomputed)
In short: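 Soluble protein was defined as the supernatant remaining after 21,000xg for 90 min, following pooling of heated aliquots and adjustment to 0.5% NP-40 at 4°C. Before that, crude K562 extract at 1 mg/mL protein in PBS pH 7.4 with 1 mM MgCl2 was treated with 10 μM compound for 30 min and heated for 3 min across 48°C-58°C. Quantification used TMTpro 16plex LC-MS/MS with channel sums equalised, and values are log-two fold changes in thermal stability relative to solvent controls from duplicates.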

log2 fold change, inactive:
STEAP3 isoform 2 (UniProt Q658P3) -0.112, STAT3 isoform 2 (UniProt P40763) 0.019, STAT1 isoform 2 (UniProt P42224) 0.01, SRSF7 (UniProt Q16629) -0.088, SREK1IP1 (UniProt Q8N9Q2) -0.022, SPTAN1 (UniProt Q13813) 0, SSX2 (UniProt Q16385) -0.005, SPTY2D1 (UniProt Q68D10) -0.083, STARD3NL (UniProt O95772) 0.016, SPATS2 (UniProt Q86XZ4) -0.107, SPG21 (UniProt Q9NZD8) -0.002, STARD9 (UniProt Q9P2P6) 0.052, STAMBP (UniProt O95630) 0.014, SSU72 (UniProt Q9NP77) -0.021, SPINDOC (UniProt Q9BUA3) 0, SPIRE1 (UniProt Q08AE8) -0.032, SPINT1 (UniProt O43278) 0.013, SSBP4 (UniProt Q9BWG4) 0.042, ST3GAL4 isoform 4 (UniProt Q11206) -0.031, STAG1 (UniProt Q8WVM7) 0.05, SS18L1 (UniProt O75177) -0.025, ST6GALNAC1 (UniProt Q9NSC7) -0.032
